# Data taken from article PMC12362409.
# Sequences of proteins named here, by UniProt entry; tags and fusion partners are left off.
# UniProt O00463: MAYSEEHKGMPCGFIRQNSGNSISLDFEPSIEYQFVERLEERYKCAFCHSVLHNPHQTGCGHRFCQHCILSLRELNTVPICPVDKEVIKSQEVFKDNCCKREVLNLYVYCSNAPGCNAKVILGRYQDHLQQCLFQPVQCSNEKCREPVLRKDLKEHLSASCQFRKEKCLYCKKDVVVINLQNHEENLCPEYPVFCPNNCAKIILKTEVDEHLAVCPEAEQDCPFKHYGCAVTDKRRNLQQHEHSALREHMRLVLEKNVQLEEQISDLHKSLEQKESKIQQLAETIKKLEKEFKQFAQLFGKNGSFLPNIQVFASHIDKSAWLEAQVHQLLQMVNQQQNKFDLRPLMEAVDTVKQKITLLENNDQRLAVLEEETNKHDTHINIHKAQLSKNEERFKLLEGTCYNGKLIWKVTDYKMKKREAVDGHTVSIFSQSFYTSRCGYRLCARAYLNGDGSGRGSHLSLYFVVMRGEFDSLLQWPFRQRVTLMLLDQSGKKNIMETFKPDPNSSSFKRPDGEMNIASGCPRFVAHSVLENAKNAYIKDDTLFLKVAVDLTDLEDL
# Results are given in words; binding and its absence hold for the method and conditions named. In cells and extracts the contact can be indirect. Sequences can lack the tags named with a protein.
# Target: T1, Myc-tagged WT mouse MAVS (mitochondrial antiviral-signaling protein) (mouse) (UniProt Q8VCF0)
# T1 sequence: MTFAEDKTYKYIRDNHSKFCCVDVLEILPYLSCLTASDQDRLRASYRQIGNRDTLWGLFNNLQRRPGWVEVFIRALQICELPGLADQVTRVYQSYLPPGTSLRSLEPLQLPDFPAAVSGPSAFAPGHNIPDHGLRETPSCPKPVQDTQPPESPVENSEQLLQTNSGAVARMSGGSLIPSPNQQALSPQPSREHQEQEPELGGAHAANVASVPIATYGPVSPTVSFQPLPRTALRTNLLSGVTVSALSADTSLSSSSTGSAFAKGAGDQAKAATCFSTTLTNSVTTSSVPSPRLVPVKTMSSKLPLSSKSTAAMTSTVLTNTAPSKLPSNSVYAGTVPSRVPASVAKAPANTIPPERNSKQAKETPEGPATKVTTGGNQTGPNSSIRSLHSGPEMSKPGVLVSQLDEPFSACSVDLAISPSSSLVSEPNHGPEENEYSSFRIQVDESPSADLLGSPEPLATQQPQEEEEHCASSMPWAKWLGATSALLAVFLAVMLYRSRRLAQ
# Assay: co-IP; association of MAVS WT with TRAF5 or TRAF6 examined 'in our system'; no figure, no details given
substance,measurement,value
TRAF5 (from UniProt O00463 1-557),binding,no binding
